The target of this test is T1, TCF7L1-HA (UniProt Q9HCS4).
T1 sequence: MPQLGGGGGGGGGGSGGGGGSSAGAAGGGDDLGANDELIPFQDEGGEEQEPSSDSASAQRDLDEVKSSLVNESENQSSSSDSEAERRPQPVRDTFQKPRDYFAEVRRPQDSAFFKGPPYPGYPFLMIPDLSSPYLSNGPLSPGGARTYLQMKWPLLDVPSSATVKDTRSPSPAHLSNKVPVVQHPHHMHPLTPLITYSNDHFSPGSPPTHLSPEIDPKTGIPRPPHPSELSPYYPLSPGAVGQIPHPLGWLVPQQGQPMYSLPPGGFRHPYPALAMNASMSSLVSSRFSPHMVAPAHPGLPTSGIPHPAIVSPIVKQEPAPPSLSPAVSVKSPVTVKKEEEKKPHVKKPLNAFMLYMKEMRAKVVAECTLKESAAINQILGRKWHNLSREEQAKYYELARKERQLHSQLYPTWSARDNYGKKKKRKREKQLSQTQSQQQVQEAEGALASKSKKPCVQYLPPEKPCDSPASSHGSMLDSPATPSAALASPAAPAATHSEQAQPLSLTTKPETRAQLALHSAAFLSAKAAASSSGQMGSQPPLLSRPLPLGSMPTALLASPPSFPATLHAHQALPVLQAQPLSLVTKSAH
The test can be described thus: co-IP; HeLa cells transfected with 6 µg TCF7L1-HA and 6 µg myc-RNF2, MG132 (10 µM, 12 h); lysed in IP buffer (50 mM Tris-HCl pH 7.5, 150 mM NaCl, 1% NP-40, 1 mM EDTA); immunoprecipitation with anti-myc and anti-HA, Protein G magnetic beads, Western blot. (In general: A western blot detects proteins with antibodies after separation by electrophoresis.)

By UniProt entry, the sequences of proteins in these tests, tags left out.
UniProt Q99496: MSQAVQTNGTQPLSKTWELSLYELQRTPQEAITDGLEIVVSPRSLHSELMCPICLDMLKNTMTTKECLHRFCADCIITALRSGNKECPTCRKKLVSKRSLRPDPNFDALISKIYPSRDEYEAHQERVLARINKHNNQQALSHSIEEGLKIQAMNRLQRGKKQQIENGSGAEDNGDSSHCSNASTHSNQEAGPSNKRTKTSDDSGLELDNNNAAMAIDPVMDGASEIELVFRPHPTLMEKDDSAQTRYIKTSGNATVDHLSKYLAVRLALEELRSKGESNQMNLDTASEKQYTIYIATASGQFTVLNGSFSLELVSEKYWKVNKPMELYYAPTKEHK

No constants are given. Whether binding was seen depends on the method and setting. Binding seen in cells or lysates may run through a third protein. Some entries that bind do so weakly or less than the wild type. Where a sequence is shown, tags or fusion partners need not be part of it.

Turning to myc-RNF2 (from UniProt Q99496 1-336), the binding entry is recorded as “binds”.

Source of the values: publication PMC10643375.
